“And” between values parts separate entries of the source, which are not always exact repeats. Equal values may be shown once. Where a name gives a salt, the structure may show the parent alone. Read-outs that look alike come from different tables or passages of the source.
Columns and labels:
[1] = cited from earlier work
[2] = Tissue distribution of donepezil after oral administration of DNP with and without WMP; details: mouse, in vivo, mice, oral DNP as 10 mg/kg donepezil, without/with WMP 300 mg/kg
[3] = Pharmacokinetics of donepezil after oral administration of DNP with and without WMP
[4] = liver S9 fraction, 1 µg/mL donepezil, without/with 1 µg/mL WMP, 30 min, 37 °C, NADPH and UDPGA
[5] = small intestine S9 fraction, 1 µg/mL donepezil, without/with 1 µg/mL WMP, 30 min, 37 °C, NADPH and UDPGA
[6] = 10 mg/kg (as donepezil), donepezil concentration in kidney
[7] = 10 mg/kg, donepezil concentration in brain
[8] = 10 mg/kg, donepezil concentration in large intestine
[9] = 10 mg/kg, donepezil concentration in plasma
[10] = 10 mg/kg, donepezil concentration in small intestine
[11] = 10 mg/kg, donepezil concentration in stomach
[12] = intercompartmental constant, mice, oral DNP as 10 mg/kg donepezil, without/with WMP 300 mg/kg
[13] = mice, oral DNP as 10 mg/kg donepezil, without/with WMP 300 mg/kg

For `COc1cc2c(cc1OC)C(=O)C(CC1CCN(Cc3ccccc3)CC1)C2` (stereo not shown) [DNP, Donepezil hydrochloride], the “donepezil's metabolites excreted into urine” value ([1]; rat, in vivo, po) is listed as 35.4%, the Tmax ([1]; rats, oral [14C]donepezil) is listed as 30 min and the systemic bioavailability ([1]; rats, oral [14C]donepezil) is listed as “approximately 86.8%”. For the same molecule, the concentration at 1 h [2, 6] was 10300 ± 6550 ng/g, the concentration at 4 h [2, 6] was 960 ± 170 ng/g and the concentration at 1 h ([2]; 10 mg/kg (as donepezil), donepezil concentration in liver) was 15100 ± 2230 ng/g. It also gave a concentration at 1 h [2, 7] of 2170 ± 1210 ng/g, a concentration at 4 h [2, 7] of 220 ± 80 ng/g and a concentration at 1 h [2, 8] of 15300 ± 5500 ng/g. The concentration at 4 h [2, 8] was 2390 ± 620 ng/g, the concentration at 1 h [2, 9] was 100 ± 50 ng/mL and the concentration at 4 h [2, 9] was 20 ± 10 ng/mL. The concentration at 1 h [2, 10] was 15800 ± 7930 ng/g, the concentration at 4 h [2, 10] was 3330 ± 1540 ng/g and the concentration at 1 h [2, 11] was 23600 ± 5790 ng/g. It also gave a concentration at 4 h [2, 11] of 3350 ± 1530 ng/g, a ka of donepezil ([3]; first-order absorption rate constant, mice, oral DNP as 10 mg/kg donepezil, without/with WMP 300 mg/kg) of 0.071 ± 0.031 min⁻¹ and a k12 of donepezil [3, 12] of 0.014 ± 0.010 min⁻¹. The k21 of donepezil [3, 12] was 0.0087 ± 0.0058 min⁻¹, the “Ae0–24 h, donepezil excreted into urine for 24 h” value [3, 13] was 1.65 % of dose and 1.65 ± 0.35 % of dose and the “GI24 h, unabsorbed and/or biliary excreted donepezil at 24 h” value [3, 13] was 0.0361 % of dose and 0.036 ± 0.02 % of dose. The AUC(0-t) ([3]; mouse, in vivo, po, 10 mg/kg) was 270 ng·h/mL, the Cmax ([3]; mouse, in vivo, po, 10 mg/kg) was 240 ± 120 ng/mL and the Tmax ([3]; mouse, in vivo, po, 10 mg/kg) was 15 min. The Vp/F of donepezil ([3]; two-compartment model, mice, oral DNP as 10 mg/kg donepezil, without/with WMP 300 mg/kg) was 4160.44 ± 592.25 mL/kg, the “disappeared percentage of donepezil” value [4] was 54.7 ± 12.8% and the “disappeared percentage of donepezil” value ([4]; listed as donepezil) was 54.7%. The “disappeared percentage of donepezil” value [5] was 14.9 ± 4.73%.
